# Data: paper PMC7594292, “Two conformations of DNA polymerase D-PCNA-DNA, an archaeal replisome complex, revealed by cryo-electron microscopy” (BMC Biology, 2020)
# Results are given in words; binding and its absence hold for the method and conditions named. Binding can be weak; no strength is given.
# Key:
# [1] = target: T1, Thermococcus kodakarensis proliferating cell nuclear antigen PCNA1 (TkoPCNA), homotrimer (Thermococcus kodakarensis) (UniProt Q5JF32); experiment: SPR; Biacore J; PCNA fixed on a CM5 chip; PolDs at 50-1000 nM flowed 120 s at 30 μl/min, 25 °C; 10 mM HEPES-NaOH pH 7.4, 0.15 M NaCl, 0.1% Tween 20; apparent KD; both purified
# T1 sequence: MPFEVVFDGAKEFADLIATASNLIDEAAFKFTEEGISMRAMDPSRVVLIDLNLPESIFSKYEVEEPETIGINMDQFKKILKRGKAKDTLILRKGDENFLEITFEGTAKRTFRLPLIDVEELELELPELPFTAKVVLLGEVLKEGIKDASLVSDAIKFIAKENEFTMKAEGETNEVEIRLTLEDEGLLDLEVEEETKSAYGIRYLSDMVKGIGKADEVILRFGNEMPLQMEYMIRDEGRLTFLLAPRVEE
# [2] = target: T1, Thermococcus kodakarensis proliferating cell nuclear antigen PCNA1 (TkoPCNA), homotrimer (Thermococcus kodakarensis); experiment: cryo-EM structure; PolD-PCNA-primed DNA complex reconstituted from purified proteins without Mg2+ and isolated by gel filtration; Form A with DNA (25/35) at 6.9 Å, Form A and Form B with DNA (30/45); crystal structures and homology models fitted; both purified
Substance,binding [1],binding [2]
PolDΔPIP: PolD with DP2(Δ1314-1324) (Thermococcus kodakarensis) (complex),binds,
"DP1, small subunit of Thermococcus kodakarensis PolD",,binds
"DP2, large subunit of Thermococcus kodakarensis PolD",,binds
